Measurements published in PMC11477289, “Low-Basicity 5-HT6 Receptor Ligands from the Group of Cyclic Arylguanidine Derivatives and Their Antiproliferative Activity Evaluation” (International Journal of Molecular Sciences, 2024).

Amino acid sequences for entries named in this document (tags omitted).
UniProt P50406, whole entry: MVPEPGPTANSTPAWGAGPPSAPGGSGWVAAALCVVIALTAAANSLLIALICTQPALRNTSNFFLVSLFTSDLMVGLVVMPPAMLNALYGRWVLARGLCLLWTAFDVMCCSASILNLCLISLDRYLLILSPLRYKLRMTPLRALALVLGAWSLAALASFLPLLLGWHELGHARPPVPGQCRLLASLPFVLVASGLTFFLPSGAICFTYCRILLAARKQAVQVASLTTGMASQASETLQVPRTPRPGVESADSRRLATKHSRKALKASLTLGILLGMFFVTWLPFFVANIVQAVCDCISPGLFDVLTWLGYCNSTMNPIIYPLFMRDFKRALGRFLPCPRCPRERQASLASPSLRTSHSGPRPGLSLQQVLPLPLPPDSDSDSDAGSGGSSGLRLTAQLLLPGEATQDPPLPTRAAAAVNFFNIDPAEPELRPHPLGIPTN

Target: T1, human 5-HT6 (Homo sapiens, UniProt P50406)
T1 construct: expressed in transfected cells
Assay: Functional evaluation, cAMP (LANCE Ultra) in HEK293 cells
Type: cell-based
Settings: antagonist mode, cAMP induced by 5-CT 1000 nM
Method: The inversion towards the agonist of the mentioned compound seems to be extremely interesting.
The supernatant was aspirated, and the cell pellet was resuspended in a stimulation buffer (1 × HBSS, 5 mM HEPES, 0.5 mM IBMX, 0.1% BSA).
The functional properties of compounds were evaluated using the LANCE Ultra cAMP detection kit (PerkinElmer). […] To investigate the antagonist activity, dopamine for D2R was added at a concentration of 10 nM, and for cell lines with 5-HT7R, 5-HT1AR, or 5-HT6R, 5-CT concentrations were adjusted, being, respectively, 10, 100, and 1000 nM, according to the receptor subtype.
For the quantification of cAMP levels, cells (5 µL) were incubated with a 5 µL mixture of necessary compounds for 30 min at room temperature in a 384-well white opaque microtiter plate (PerkinElmer). After incubation, the reaction was stopped, and cells were lysed by the addition of a 10 µL working solution (5 µL Eu-cAMP and 5 µL ULight-anti-cAMP). The assay plate was incubated for 1 h at room temperature. The time-resolved fluorescence resonance energy transfer (TR-FRET) signal was detected by an Infinite M1000 Pro (Tecan, Männedorf, Switzerland) using instrument settings from the LANCE Ultra cAMP detection kit manual.

COc1ccc(NS(=O)(=O)c2ccc(I)cc2)cc1N1CCN(C)CC1 [SB258585, reference compound]
Kb: 300 pM
